Assay results from article PMC3570372.
No constants are given. Whether binding was seen depends on the method and setting. Some binding calls cover weakened binding; strength is not graded here.

Assays:
[1] = target: T1, TGA2 (Arabidopsis thaliana) (UniProt P43273); assay: two-hybrid; yeast two-hybrid (n-hybrid) with pDEST22 and pDEST32 fusions, NPR1 or npr1 alleles in a third plasmid (pARC352); interaction quantified in Miller Units
T1 sequence: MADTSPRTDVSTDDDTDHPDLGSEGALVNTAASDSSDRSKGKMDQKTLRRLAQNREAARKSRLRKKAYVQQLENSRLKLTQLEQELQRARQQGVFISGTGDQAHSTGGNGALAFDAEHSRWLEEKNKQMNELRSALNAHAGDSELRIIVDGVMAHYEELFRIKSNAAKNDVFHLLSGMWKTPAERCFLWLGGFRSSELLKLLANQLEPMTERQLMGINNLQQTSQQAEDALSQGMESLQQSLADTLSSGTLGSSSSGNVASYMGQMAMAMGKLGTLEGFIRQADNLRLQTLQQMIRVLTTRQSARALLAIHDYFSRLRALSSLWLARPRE

[2] = target: T2, BLADE-ON-PETIOLE2 (BOP2) (Arabidopsis thaliana) (UniProt Q9ZVC2); assay: as above
T2 sequence: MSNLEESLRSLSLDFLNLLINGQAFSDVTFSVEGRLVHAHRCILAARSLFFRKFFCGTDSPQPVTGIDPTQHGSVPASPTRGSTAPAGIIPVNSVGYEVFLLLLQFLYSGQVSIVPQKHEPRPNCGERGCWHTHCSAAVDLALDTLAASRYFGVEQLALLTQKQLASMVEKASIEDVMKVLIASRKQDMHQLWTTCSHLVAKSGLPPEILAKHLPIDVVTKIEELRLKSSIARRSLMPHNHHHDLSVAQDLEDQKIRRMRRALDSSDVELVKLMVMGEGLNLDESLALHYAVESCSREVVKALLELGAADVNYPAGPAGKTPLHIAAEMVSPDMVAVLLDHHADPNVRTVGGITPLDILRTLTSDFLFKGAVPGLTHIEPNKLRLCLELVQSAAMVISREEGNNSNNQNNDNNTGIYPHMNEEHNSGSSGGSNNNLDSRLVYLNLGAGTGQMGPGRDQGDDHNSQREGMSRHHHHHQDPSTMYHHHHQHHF

[3] = target: T3, TGA6 (Arabidopsis thaliana) (UniProt Q39140); assay: as above
T3 sequence: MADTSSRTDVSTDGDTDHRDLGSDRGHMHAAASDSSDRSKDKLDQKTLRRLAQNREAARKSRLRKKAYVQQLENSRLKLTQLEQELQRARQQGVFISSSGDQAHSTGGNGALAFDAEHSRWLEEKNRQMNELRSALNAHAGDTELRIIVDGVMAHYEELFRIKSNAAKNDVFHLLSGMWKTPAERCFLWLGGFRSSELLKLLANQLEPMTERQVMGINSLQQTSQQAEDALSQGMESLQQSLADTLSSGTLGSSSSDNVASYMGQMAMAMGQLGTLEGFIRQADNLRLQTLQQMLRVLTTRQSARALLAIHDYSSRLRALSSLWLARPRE

[4] = target: T4, TGA5 (Arabidopsis thaliana) (UniProt Q39163); assay: two-hybrid; data not shown; yeast two-hybrid with NPR1 or npr1 alleles in a third plasmid
T4 sequence: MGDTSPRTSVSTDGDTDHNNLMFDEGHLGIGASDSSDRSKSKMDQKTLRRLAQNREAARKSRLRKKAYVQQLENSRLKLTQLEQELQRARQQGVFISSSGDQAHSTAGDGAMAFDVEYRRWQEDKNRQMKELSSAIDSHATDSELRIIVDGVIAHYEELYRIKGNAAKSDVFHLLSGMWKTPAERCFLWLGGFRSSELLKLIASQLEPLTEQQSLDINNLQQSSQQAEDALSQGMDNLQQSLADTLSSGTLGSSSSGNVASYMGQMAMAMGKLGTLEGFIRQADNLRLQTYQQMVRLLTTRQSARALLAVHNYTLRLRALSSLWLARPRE

[5] = target: T1, TGA2 (Arabidopsis thaliana); assay: as above
[6] = target: T3, TGA6 (Arabidopsis thaliana); assay: as above

Measured: binding

B1: BLADE-ON-PETIOLE1 (BOP1) (protein, UniProt Q9M1I7 1-467)
chain: MSNTFEESLKSMSLDYLNLLINGQAFSDVTFSVEGRLVHAHRCILAARSLFFRKFFCESDPSQPGAEPANQTGSGARAAAVGGVIPVNSVGYEVFLLLLQFLYSGQVSIVPHKHEPRSNCGDRGCWHTHCTAAVDLSLDILAAARYFGVEQLALLTQKHLTSMVEKASIEDVMKVLIASRKQDMHQLWTTCSYLIAKSGLPQEILAKHLPIELVAKIEELRLKSSMPLRSLMPHHHDLTSTLDLEDQKIRRMRRALDSSDVELVKLMVMGEGLNLDESLALIYAVENCSREVVKALLELGAADVNYPAGPTGKTALHIAAEMVSPDMVAVLLDHHADPNVQTVDGITPLDILRTLTSDFLFKGAIPGLTHIEPNKLRLCLELVQSAALVISREEGNNNSNDNNTMIYPRMKDEHTSGSSLDSRLVYLNLGATNRDIGDDNSNQREGMNLHHHHHDPSTMYHHHHHHF
binds: [1] | [2] | [3] | [4]

B2: BLADE-ON-PETIOLE2 (BOP2) (protein, UniProt Q9ZVC2 1-491)
chain: T2 sequence
binds: [5] | [4] | [6]
